No constants are given. Whether binding was seen depends on the method and setting. Some results given as binding are weak or reduced against the parent protein; the word gives no strength.
How the values were obtained:
Experiment in all cases: SEC
[1] = biological target: ASH2L (mouse (endogenous in E14 mESCs)) (UniProt Q91X20)
[2] = biological target: CFP1 (mouse (endogenous in E14 mESCs)) (UniProt Q9CWW7)
[3] = biological target: RBBP5 (mouse (endogenous in E14 mESCs)) (UniProt Q8BX09)

Protein sequences, listed by entry. Tags and fused reporters are not part of them. Residues count along the entry.
UniProt Q91X20, whole entry: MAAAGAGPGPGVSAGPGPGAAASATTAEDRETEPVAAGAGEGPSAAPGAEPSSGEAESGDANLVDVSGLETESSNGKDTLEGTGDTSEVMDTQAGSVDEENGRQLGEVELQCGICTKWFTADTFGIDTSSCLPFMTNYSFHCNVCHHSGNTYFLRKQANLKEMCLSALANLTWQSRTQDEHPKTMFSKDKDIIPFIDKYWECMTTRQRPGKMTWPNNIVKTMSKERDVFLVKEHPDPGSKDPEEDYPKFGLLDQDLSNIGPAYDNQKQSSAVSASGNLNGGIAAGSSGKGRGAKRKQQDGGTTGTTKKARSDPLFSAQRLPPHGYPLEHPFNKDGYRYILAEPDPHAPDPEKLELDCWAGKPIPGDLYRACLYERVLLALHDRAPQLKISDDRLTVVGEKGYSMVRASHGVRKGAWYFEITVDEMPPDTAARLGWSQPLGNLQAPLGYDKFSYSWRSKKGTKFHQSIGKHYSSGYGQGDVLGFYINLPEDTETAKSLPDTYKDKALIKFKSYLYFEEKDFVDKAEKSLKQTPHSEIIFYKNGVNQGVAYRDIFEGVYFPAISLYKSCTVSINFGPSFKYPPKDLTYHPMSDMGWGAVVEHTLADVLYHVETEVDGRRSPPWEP
UniProt Q9CWW7, whole entry: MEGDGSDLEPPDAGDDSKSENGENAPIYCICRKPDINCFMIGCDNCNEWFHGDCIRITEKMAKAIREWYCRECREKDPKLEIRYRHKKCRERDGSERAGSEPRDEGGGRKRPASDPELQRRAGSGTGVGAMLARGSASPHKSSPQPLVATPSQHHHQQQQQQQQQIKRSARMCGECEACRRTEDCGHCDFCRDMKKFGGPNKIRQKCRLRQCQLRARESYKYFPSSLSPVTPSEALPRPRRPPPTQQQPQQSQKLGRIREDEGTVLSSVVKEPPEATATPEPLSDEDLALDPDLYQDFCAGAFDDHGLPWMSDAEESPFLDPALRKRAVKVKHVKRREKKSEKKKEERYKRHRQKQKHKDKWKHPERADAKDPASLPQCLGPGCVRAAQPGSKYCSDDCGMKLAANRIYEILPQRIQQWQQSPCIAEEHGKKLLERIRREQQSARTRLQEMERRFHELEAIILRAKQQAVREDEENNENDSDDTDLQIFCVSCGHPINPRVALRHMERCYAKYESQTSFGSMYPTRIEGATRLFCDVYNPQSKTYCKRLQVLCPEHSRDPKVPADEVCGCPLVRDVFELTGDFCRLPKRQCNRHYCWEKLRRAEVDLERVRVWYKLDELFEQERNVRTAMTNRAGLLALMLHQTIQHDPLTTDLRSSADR
UniProt Q8BX09, whole entry: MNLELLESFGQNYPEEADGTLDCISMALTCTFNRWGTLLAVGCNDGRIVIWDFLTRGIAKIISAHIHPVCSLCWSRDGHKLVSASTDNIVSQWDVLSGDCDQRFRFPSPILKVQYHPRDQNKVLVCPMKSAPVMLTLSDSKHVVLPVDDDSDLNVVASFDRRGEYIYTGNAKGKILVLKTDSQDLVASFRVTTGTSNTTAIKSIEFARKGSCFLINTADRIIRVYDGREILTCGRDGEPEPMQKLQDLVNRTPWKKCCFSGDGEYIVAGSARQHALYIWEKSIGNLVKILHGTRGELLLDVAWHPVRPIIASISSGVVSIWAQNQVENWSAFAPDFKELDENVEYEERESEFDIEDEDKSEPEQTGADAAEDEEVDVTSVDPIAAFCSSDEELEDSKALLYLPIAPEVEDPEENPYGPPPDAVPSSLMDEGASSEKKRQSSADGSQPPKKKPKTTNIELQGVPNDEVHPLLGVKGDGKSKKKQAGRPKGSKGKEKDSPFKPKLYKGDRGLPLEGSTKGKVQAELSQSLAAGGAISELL
UniProt Q8CFT2, 1185-1985: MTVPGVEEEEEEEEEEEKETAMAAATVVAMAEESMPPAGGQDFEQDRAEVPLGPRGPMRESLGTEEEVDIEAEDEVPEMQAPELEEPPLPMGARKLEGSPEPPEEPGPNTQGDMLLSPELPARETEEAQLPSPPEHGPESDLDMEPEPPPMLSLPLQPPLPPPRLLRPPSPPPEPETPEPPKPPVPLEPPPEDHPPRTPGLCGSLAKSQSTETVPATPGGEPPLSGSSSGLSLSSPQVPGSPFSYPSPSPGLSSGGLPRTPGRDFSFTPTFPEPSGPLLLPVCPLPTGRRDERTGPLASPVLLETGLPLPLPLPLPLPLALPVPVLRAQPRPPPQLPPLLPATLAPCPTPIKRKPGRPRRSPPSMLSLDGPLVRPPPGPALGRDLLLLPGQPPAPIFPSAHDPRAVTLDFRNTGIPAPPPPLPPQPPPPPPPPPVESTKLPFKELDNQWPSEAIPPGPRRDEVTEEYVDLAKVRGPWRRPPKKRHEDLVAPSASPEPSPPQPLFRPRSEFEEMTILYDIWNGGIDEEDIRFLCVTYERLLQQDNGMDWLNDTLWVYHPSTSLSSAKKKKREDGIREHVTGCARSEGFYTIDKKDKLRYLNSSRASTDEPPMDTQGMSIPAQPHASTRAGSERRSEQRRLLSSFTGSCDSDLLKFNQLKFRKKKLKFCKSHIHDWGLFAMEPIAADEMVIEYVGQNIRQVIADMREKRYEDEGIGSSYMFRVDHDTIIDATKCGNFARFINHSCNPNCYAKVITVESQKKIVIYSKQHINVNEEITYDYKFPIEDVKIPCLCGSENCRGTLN

binding [1]: binds
binding [2]: binds
binding [3]: binds
Substance: dTAG-SET1B-C (from UniProt Q8CFT2 1185-1985)

Reference: publication doi:10.64898/2025.12.08.692985
